No constants are given. Whether binding was seen depends on the method and setting. A result given as binding can be weak or reduced; the word gives no strength. For some assays here: In cells and extracts the contact can be indirect. For some assays here: Tags and fused reporters may be left off the sequences shown.
Experiments:
[1] = target: N-terminally His-tagged Urm1 (Saci0669) of S. acidocaldarius (S. acidocaldarius) (UniProt Q4JAX6); assay: pull-down; 30 μg N-terminally His-tagged Urm1 and 90 μg untagged ELSA/Uba4p/ThiF incubated at 70 °C for 1 h with or without 2.5 mM ATP, retrieved on Ni-NTA agarose; Coomassie gel and anti-His blot; both purified
[2] = target: Saci0662 20S proteasome β-subunit with its N-terminal pro-peptide, C-terminally His-tagged (S. acidocaldarius) (UniProt Q4JAY3); assay: co-purification on Ni-NTA IMAC after co-expression; untagged Saci0613 α co-expressed in E. coli with one C-terminally His-tagged β-subunit (full or ΔN); Ni-NTA agarose IMAC of the heat-clarified lysate

Sequences of proteins named here, by UniProt entry; tags and fusion partners are left off. A change or cut given only in a name is not applied to a line headed by its entry.
UniProt Q4JAX6: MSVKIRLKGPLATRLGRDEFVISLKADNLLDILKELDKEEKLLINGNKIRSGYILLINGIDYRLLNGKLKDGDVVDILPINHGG
UniProt Q4JAY3: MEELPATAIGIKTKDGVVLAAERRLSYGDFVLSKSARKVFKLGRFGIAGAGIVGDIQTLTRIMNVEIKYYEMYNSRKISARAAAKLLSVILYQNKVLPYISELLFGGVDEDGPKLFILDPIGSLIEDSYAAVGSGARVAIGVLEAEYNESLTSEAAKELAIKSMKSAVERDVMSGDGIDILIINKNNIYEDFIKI
UniProt Q4JC81: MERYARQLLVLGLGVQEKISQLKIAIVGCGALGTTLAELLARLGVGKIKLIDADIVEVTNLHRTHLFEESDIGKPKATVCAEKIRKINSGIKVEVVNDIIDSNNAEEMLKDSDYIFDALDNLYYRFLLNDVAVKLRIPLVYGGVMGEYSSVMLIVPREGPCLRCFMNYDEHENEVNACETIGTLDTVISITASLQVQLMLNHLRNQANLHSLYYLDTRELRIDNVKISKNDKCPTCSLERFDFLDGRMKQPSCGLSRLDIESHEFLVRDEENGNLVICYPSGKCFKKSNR

Row | binding [1] | binding [2] | Molecule
1 | binds | – | ELSA/Uba4p/ThiF E1-like enzyme (Saci0179) of S. acidocaldarius, untagged (from UniProt Q4JC81)
2 | – | binds | Saci0613 20S proteasome α-subunit, untagged (natural protein, S. acidocaldarius, UniProt Q4JB24 1-242, looked up, 20S proteasome α-subunit, S. acidocaldarius DSM639, Saci0613; also called Saci0613 α; 0613 α-subunit; source: E. coli Rosetta (DE3) pLysS, co-expressed with β-subunit(s); in heat-clarified lysate, and purified as part of the complex (Ni-NTA IMAC, size exclusion chromatography)) MALGPAAMGYDRAITIFSPDGSLYQVDYAFEAVKRGWTTLGVKTKSGVVLLAEKRKATQLLDVDGIEKIFMLDDHVGCTFAGLASDGRILIDYARSQALQHRLIYDEPISIEYLTKVISDVKQAYTQHGGVRPFGVALIVGGIDKGKQPKLLMTEPSGQFMPYYAVAIGQGGYTATEYLEKNYKEDLDIQSTILLALRALMATLKPGEKLNYSSVEIGYADVDSGTFKKLTTEERSDLLQKI

Reference: article PMC4569737, “Involvement of a eukaryotic-like ubiquitin-related modifier in the proteasome pathway of the archaeon Sulfolobus acidocaldarius” (Nature Communications, 2015)
